Experimental data: paper PMC3448846 (European neuropsychopharmacology : the journal of the …, 2012)

System: spatial learning and memory
Assay: Morris water maze
Format: in vivo, male Wistar rats
Settings: 2 mg/kg i.p., vs solvent-treated controls
Procedure, shortened: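 Male Wistar rats, 220–250 g, n=8/group, dosed i.p. in 85% water/14% propylene glycol/1% Tween 80 (sonicated) 20 min before each daily block for 5 acquisition days. Pool 200 cm wide with 23°C water; 15×10 cm platform 2 cm below the surface. Each block had 4 trials (max 120 s, 60 s interval, pseudorandom starts). Per-rat daily means were recorded. The probe trial measured target-region time and peripheral-ring distance.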

CN1C(=O)CN=C(c2ccccc2)c2cc(Cl)ccc21 [DZP, diazepam, reference compound]
path efficiency during acquisition: significantly lower path efficiencies than solvent-treated controls from day two onwards
